These are yes or no findings as the source states them, for the method shown.
Molecular target: Recombinant full-length plasma kallikrein, optimized variant with the active site mutation S559A, activated by β-FXIIa (human) (UniProt P03952)
Assay: crystal structure; PKa with benzamidine, 1.3 Å, space group P2(1)2(1)2, crystals from the Morpheus screen; both purified

Chains of the proteins cited; added tags and fusions are not shown. Lines headed by an entry give the natural chain unless they say otherwise; changes in a name come on top.
UniProt P03952: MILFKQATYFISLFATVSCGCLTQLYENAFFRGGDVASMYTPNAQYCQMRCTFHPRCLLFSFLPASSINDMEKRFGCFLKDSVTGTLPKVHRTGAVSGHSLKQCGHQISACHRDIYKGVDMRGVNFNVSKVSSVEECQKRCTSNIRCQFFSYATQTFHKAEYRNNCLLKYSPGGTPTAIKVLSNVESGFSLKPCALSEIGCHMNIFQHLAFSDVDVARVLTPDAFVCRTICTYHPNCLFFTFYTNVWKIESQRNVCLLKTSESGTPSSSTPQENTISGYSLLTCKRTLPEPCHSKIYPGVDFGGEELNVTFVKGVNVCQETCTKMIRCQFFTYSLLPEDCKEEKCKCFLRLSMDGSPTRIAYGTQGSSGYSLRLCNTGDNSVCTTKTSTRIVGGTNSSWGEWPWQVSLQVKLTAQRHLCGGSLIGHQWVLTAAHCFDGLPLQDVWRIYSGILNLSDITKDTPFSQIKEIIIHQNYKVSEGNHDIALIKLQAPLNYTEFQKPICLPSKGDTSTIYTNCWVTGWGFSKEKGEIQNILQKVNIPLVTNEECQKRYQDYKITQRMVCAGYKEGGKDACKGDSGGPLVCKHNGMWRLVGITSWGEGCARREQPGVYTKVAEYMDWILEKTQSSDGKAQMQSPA

“Recombinant full-length plasma kallikrein, optimized variant with the active site mutation S559A, activated by β-FXIIa (from UniProt P03952 20-390; P03952 391-638) (enzyme)” was tested, and the binding was “no binding”.
